Our source for the binding values is publication PMC4825987.

Results are given in words; binding and its absence hold for the method and conditions named. Some binding calls cover weakened binding; strength is not graded here. Tags and fused reporters may be left off the sequences shown.

The target of test [1] is T1, hORC3, yeast two-hybrid fusion (human) (UniProt Q9UBD5).
T1 sequence: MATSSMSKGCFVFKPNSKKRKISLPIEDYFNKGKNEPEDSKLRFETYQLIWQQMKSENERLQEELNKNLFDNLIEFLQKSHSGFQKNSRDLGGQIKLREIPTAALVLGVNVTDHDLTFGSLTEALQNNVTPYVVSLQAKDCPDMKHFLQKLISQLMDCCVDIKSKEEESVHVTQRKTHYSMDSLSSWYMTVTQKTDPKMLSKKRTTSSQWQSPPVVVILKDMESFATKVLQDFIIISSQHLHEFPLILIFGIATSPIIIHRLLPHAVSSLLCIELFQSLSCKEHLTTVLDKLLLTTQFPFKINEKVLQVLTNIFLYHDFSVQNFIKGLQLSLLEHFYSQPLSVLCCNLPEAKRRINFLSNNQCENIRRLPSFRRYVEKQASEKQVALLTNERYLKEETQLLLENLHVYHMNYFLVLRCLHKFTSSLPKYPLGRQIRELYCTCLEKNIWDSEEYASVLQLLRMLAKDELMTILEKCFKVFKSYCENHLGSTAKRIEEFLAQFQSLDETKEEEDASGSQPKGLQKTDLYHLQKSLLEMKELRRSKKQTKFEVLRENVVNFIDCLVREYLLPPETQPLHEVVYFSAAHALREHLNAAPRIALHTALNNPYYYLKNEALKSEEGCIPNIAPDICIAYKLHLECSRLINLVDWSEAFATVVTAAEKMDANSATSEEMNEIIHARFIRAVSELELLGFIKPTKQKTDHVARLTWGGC
In words: two-hybrid; Gal4 AD (pGADT7) and BD (pGBKT7) fusions co-transformed into AH109 yeast; growth on SCM-Trp-Leu-His (SCM-3) plates against SCM-Trp-Leu (SCM-2).

Test [2] concerns the target T2, hMCM3, yeast two-hybrid fusion (human) (UniProt P25205).
T2 sequence: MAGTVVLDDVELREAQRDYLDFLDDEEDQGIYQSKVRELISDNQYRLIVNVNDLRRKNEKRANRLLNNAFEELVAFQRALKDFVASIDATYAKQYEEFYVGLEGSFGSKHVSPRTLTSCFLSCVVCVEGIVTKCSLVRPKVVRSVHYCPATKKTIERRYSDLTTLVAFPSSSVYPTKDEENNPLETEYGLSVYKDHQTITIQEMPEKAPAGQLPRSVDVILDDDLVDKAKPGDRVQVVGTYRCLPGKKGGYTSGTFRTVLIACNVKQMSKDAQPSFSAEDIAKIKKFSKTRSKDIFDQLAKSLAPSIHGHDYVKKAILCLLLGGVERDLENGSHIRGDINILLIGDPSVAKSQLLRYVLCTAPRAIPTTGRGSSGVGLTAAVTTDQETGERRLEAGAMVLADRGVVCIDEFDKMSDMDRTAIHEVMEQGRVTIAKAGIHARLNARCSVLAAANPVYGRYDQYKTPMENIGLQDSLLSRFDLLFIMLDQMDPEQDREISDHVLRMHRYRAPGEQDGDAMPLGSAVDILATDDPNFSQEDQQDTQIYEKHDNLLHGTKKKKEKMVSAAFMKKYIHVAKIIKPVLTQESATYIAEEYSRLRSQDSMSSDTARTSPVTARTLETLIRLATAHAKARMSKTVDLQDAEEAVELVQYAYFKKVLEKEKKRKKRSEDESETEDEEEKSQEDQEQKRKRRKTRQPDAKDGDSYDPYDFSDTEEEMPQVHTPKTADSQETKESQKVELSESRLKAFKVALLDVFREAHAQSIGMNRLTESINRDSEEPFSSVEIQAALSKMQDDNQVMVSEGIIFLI
Described as above.

B1: hIPI3 (WDR18, WD repeat domain 18), yeast two-hybrid fusion (protein, UniProt Q9BV38 1-432)
chain: MAAPMEVAVCTDSAAPMWSCIVWELHSGANLLTYRGGQAGPRGLALLNGEYLLAAQLGKNYISAWELQRKDQLQQKIMCPGPVTCLTASPNGLYVLAGVAESIHLWEVSTGNLLVILSRHYQDVSCLQFTGDSSHFISGGKDCLVLVWSLCSVLQADPSRIPAPRHVWSHHALPITDLHCGFGGPLARVATSSLDQTVKLWEVSSGELLLSVLFDVSIMAVTMDLAEHHMFCGGSEGSIFQVDLFTWPGQRERSFHPEQDAGKVFKGHRNQVTCLSVSTDGSVLLSGSHDETVRLWDVQSKQCIRTVALKGPVTNAAILLAPVSMLSSDFRPSLPLPHFNKHLLGAEHGDEPRHGGLTLRLGLHQQGSEPSYLDRTEQLQAVLCSTMEKSVLGGQDQLRVRVTELEDEVRNLRKINRDLFDFSTRFITRPAK
As for B1, the binding result in test [1] and in test [2] was “binds” each time.
